Test results as given in PubChem BioAssay AID493014 (National Center for Advancing Translational Sciences (NCATS), 2011).
This is one part of the list. The main result of the screen is listed elsewhere. These columns were measured beside it and carry no call. The list favours compounds with an active or inconclusive main result. Potencies come from curve fits of mixed quality, noted in brackets.

Test: qHTS Assay to Find Inhibitors of Chronic Active B-Cell Receptor Signaling
Settings: ABC-DLBCL IkBa-CBG/CBR reporter, luminescence ratio (green luciferase fused to IkBa over red control in TMD8 lymphoma cells), 4 h
Procedure, shortened: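 Compounds up to 46 uM were incubated four hours with TMD8 cells whose green CBG68 luciferase is fused to IkappaBalpha; red CBR luminescence normalised the signal, and concentration-effect curves were fitted to fusion, red and ratio data.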

[1] = measured here: CBR red luminescence, cell number
[2] = measured here: IkBa-CBG green luminescence

Row | SMILES | AC50 [1] | AC50 [2]
1 | OCCCc1nc2n(n1)C(c1ccccc1)C=C(c1ccccc1)N2 (stereo not drawn) | 14.6 µM [rising, partial curve, poor fit] | 
2 | CCOC(=O)N1CCC(Nc2ncnc3c2cnn3-c2ccc(C)cc2C)CC1 | 20.6 µM [falling, single point] | 
3 | CC1CCCC(C)N1C(=O)COC(=O)C1CCN(S(=O)(=O)c2c(Cl)cccc2Cl)CC1 (stereo not drawn) | 0.731 µM [rising, partial curve, poor fit] | 
4 | COc1ccc(-c2nc(NC(=O)C3CCN(c4nc5ccccc5o4)CC3)sc2C)cc1 | 10 µM [falling, partial curve] | 
5 | COc1ccccc1NC(=O)CSc1nnc(COc2ccccc2C)o1 | 2.51 µM [rising, full curve, poor fit] | 
6 | O=C(Nc1ccc(Br)cc1)c1ccco1 | 0.731 µM [rising, partial curve, poor fit] | 
7 | CC1CCCC(NCC(O)COC(c2ccc(F)cc2)c2ccc(F)cc2)C1C (stereo not drawn) | 11.2 µM [falling, partial curve] | 
8 | Cc1ccc(-c2cc(C(F)(F)F)c(C#N)c(SCC(=O)O)n2)cc1 | 3.98 µM [falling, full curve, poor fit] | 
9 | CCCn1c(-c2ccncc2)n[nH]c1=S | 5.62 µM [rising, single point] | 
10 | C/C(=C\c1cccc(Br)c1)C(=O)c1c(C)cc(C)[nH]c1=O | 2.51 µM [falling, partial curve, poor fit] | 
11 | CC1CCc2c(C(=O)NCCCN3CCOCC3)csc2C1 (stereo not drawn) | 2.82 µM [falling, partial curve, poor fit] | 
12 | CCOC(=O)Nc1ccc2c(c1)N(C(=O)CCN(CC)CC)c1ccccc1S2=O (stereo not drawn) | 7.08 µM [falling, partial curve] | 14.1 µM [rising, single point]
13 | COc1ccc(/C=C/C(=O)Nc2nonc2NC(C)=O)cc1 | 18.4 µM [falling, partial curve] | 
14 | Cc1cccc(C#Cc2ccccc2)n1 | 25.9 µM [rising, single point] | 
15 | Nc1ccc(C(=O)OCC(=O)N2CCOCC2)cc1[N+](=O)[O-] | 14.6 µM [falling, partial curve, poor fit] | 
16 | COc1cc(NC(=S)N2CCN(S(=O)(=O)c3ccc(F)cc3)CC2)cc(OC)c1 | 15.8 µM [falling, partial curve, poor fit] | 
17 | COc1cc(Nc2c3c(nc4ccccc24)CCC3)cc(OC)c1OC |  | 15.8 µM [falling, partial curve]
18 | c1ccc(-c2nnc(-c3ccccn3)s2)nc1 | 2 µM [falling, full curve, poor fit] | 
19 | O=C(Nc1ccc([N+](=O)[O-])cc1)c1ccccc1 | 22.4 µM [falling, partial curve, poor fit] | 
20 | Fc1ccc(OCc2cc(-c3ccccc3)no2)cc1 | 15.8 µM [falling, single point] | 
21 | CC1(C)SC(=S)N(NC(=O)Nc2ccccc2)C1N(O)C(=O)Nc1cccc2ccccc12 (stereo not drawn) | 20.6 µM [falling, single point] | 

Row | SMILES | AC50 [1] | AC50 [2]
22 | Cc1noc(C(=O)Nc2cc(Cl)ccc2O)c1Cl | 0.112 µM [rising, full curve, poor fit] | 
23 | O=C(Nc1ccc(F)cc1)Nc1csc2ccccc12 | 3.98 µM [falling, full curve, poor fit] | 
24 | FC(F)(F)c1ccc(/C=N/n2c(C3CCCCC3)n[nH]c2=S)cc1 | 15.8 µM [rising, partial curve] | 
25 | COc1ccc(C(CNC(=O)c2cc(C)oc2C)N2CCOCC2)cc1 (stereo not drawn) | 2.51 µM [falling, full curve] | 
26 | Nc1nc(CSc2nc3ccccc3s2)nc(Nc2ccccc2)n1 | 32.6 µM [falling, single point] | 
27 | C/C(=N\NC(=O)c1ccccc1)c1ccc2c(c1)OCO2 | 13 µM [falling, partial curve, poor fit] | 
28 | O=C(Cn1cnc2ccccc2c1=O)Nc1ccc2c(c1)OCO2 | 2.91 µM [rising, single point] | 
29 | CC1CCCN(c2nc(-c3cccnc3)nc3scc(-c4ccccc4)c23)C1 (stereo not drawn) | 29.1 µM [rising, single point] | 
30 | Cc1ccc(SC2=C(Sc3ccc(C)cc3)C(=O)c3ccccc3C2=O)cc1 | 7.08 µM [rising, partial curve, poor fit] | 
31 | O=C(CN(C1CC1)S(=O)(=O)c1ccc(S(=O)(=O)NC2CCCCC2)cc1)Nc1ccccc1 | 22.4 µM [falling, single point] | 
32 | COc1ccccc1N1CCN(C(=O)c2ccc3c(c2)CCN3S(=O)(=O)c2ccccc2)CC1 | 35.5 µM [falling, single point] | 
33 | COc1ccc(NC(=O)N2CCCC2C(=O)NC23CC4CC(CC(C4)C2)C3)cc1 (stereo not drawn) | 0.708 µM [rising, full curve, poor fit] | 
34 | C/C(=N\NC(=O)c1nn(C)cc1Br)c1ccncc1 | 8.2 µM [falling, partial curve] | 
35 | COCC(=O)NCc1ccc2c(c1)cc(C)n2C | 18.4 µM [rising, partial curve, poor fit] | 
36 | CN1/C(=C\C(=O)Nc2ccc(Br)cc2)C(C)(C)c2ccccc21 | 2.59 µM [rising, full curve, poor fit] | 
37 | COc1ccc2cc(CN(CC3CCCO3)C(=O)Nc3ccccc3)c(=O)[nH]c2c1 (stereo not drawn) | 17.8 µM [falling, single point] | 12.6 µM [rising, single point]
38 | CC(=O)[C@H]1CCC2C3CC=C4C[C@@H](O)CC[C@]4(C)C3CC[C@@]21C (stereo partly drawn) | 8.2 µM [rising, partial curve, poor fit] | 
39 | Cc1cc(C)n2nc(C(=O)Nc3cccc(S(=O)(=O)N(C)c4ccccc4)c3)nc2n1 | 0.282 µM [rising, full curve, poor fit] | 
40 | CCCCn1c(SCC(=O)NCC2CCCO2)nc2ccc(N3CCOCC3)cc2c1=O (stereo not drawn) | 0.58 µM [falling, full curve, poor fit] | 
41 | COc1cc(NC(=O)C(=O)N2CCN(C)CC2)c(OC)cc1Cl | 0.794 µM [rising, partial curve, poor fit] | 

Three compounds out of the list, sorted by molar mass, smallest number first:
Row | SMILES | AC50 [1] | AC50 [2]
35 | COCC(=O)NCc1ccc2c(c1)cc(C)n2C | 18.4 µM [rising, partial curve, poor fit] | 
28 | O=C(Cn1cnc2ccccc2c1=O)Nc1ccc2c(c1)OCO2 | 2.91 µM [rising, single point] | 
40 | CCCCn1c(SCC(=O)NCC2CCCO2)nc2ccc(N3CCOCC3)cc2c1=O (stereo not drawn) | 0.58 µM [falling, full curve, poor fit] | 
